Data reported in the supplement of paper PMC10849652.
Some of the results follow.

The chains behind the UniProt entries cited, without tags or fusion partners. Where a name states a change or a piece, a line headed by the entry shows the natural chain unless it says otherwise.
UniProt O95985: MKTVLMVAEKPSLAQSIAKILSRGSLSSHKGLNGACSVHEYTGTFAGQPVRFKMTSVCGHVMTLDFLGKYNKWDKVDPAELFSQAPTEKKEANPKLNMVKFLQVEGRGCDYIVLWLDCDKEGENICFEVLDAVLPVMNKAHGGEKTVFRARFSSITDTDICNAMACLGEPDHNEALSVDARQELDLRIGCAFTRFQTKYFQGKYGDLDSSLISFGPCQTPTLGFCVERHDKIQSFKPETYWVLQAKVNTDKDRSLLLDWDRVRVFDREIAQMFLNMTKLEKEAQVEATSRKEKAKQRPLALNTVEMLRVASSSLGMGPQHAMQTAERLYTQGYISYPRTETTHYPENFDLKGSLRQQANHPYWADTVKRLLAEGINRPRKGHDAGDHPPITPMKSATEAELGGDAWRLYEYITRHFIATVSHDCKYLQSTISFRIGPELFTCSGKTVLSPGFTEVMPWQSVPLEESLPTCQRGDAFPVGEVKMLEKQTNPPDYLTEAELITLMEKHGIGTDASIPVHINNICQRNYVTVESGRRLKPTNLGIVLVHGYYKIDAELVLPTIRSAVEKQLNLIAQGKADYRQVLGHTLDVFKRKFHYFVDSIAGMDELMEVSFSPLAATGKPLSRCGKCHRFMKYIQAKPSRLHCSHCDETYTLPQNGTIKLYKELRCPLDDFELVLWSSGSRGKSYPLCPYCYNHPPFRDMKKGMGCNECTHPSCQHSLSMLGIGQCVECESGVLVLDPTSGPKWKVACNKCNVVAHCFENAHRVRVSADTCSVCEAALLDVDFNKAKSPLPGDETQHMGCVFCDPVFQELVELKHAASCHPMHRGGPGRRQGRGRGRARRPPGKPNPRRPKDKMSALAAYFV
UniProt O94842: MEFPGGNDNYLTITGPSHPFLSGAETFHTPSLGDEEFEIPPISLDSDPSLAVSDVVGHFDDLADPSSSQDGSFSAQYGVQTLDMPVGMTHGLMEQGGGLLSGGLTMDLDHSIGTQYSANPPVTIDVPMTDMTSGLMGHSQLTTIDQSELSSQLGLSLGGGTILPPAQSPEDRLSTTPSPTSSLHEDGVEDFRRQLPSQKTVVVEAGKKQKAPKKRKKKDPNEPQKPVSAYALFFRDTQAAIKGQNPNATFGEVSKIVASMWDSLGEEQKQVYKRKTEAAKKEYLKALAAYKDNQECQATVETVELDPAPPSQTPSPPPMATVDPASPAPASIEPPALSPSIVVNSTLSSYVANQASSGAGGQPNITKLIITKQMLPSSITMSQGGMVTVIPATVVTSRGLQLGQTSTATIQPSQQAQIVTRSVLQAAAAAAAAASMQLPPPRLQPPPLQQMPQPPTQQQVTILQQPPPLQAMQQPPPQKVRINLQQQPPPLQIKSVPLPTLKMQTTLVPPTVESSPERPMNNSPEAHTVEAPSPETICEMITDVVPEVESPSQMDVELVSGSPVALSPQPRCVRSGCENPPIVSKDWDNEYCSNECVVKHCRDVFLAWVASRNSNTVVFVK
UniProt O96008: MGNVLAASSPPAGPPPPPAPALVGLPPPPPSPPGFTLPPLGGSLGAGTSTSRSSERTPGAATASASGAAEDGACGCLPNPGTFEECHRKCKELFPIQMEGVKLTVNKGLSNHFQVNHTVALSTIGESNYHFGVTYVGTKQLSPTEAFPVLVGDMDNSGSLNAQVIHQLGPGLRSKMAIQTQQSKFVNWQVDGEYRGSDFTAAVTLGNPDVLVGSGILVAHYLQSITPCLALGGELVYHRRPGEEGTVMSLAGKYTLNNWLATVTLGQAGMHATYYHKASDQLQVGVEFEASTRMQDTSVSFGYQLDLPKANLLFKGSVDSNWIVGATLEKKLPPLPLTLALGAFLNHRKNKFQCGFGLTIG
UniProt O94886: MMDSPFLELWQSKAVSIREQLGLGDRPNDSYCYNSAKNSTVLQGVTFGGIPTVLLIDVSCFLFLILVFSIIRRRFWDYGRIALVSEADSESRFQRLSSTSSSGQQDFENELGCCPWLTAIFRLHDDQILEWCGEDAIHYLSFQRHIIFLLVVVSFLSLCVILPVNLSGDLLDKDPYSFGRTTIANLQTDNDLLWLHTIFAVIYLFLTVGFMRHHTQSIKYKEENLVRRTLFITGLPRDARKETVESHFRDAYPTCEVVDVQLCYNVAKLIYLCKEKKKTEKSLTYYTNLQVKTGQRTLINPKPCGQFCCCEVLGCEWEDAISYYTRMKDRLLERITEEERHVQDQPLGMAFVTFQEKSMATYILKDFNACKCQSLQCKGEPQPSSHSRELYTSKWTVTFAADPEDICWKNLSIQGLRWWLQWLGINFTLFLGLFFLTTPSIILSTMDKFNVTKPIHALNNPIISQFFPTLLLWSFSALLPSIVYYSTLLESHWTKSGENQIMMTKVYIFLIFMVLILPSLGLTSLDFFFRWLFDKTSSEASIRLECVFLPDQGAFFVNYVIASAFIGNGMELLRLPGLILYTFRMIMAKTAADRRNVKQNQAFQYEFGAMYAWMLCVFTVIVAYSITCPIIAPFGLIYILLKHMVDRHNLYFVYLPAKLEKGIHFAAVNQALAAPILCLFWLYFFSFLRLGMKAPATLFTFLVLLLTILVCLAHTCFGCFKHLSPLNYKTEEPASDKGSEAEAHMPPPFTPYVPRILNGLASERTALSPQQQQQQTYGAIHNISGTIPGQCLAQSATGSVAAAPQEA
UniProt Q9BTV4: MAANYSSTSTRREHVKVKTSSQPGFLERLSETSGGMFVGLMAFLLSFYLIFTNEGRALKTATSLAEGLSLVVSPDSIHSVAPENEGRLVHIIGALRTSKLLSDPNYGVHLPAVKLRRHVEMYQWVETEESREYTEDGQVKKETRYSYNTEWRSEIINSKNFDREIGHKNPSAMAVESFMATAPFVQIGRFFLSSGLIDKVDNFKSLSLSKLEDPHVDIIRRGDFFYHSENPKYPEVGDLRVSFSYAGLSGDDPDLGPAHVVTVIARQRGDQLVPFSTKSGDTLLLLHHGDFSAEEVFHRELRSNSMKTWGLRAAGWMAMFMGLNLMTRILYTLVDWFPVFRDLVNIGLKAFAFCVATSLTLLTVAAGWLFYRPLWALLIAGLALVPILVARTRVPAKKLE
UniProt Q9NV96: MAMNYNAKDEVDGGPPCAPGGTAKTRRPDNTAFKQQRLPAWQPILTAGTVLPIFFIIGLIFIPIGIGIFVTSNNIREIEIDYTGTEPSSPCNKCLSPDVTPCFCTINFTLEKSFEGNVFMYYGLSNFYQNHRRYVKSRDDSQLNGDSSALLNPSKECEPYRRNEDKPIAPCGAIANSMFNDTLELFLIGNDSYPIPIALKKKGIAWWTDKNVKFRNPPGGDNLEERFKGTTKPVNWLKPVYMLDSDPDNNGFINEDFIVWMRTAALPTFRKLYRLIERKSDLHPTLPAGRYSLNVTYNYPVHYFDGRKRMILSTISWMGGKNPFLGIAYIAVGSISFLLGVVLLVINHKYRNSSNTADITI
UniProt O95379: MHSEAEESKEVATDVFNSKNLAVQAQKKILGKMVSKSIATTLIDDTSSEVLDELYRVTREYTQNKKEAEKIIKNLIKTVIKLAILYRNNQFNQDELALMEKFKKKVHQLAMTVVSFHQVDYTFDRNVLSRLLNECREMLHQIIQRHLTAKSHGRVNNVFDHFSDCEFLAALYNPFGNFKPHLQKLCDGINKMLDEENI
UniProt Q9NS69: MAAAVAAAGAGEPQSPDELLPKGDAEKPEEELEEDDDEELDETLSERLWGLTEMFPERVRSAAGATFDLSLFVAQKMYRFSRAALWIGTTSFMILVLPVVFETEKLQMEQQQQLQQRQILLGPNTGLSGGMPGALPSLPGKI
UniProt Q15388, whole entry, looked up: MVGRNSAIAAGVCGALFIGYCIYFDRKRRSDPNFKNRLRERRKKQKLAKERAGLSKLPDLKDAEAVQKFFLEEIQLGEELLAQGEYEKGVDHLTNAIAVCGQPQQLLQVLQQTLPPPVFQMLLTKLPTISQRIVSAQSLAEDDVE
UniProt Q96S44: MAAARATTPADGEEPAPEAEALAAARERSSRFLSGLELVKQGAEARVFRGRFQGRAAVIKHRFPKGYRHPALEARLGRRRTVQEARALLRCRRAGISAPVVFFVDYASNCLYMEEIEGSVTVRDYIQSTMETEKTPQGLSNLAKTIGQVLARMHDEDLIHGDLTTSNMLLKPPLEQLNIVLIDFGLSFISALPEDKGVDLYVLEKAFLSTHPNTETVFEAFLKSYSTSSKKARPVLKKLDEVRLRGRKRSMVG
UniProt Q13472: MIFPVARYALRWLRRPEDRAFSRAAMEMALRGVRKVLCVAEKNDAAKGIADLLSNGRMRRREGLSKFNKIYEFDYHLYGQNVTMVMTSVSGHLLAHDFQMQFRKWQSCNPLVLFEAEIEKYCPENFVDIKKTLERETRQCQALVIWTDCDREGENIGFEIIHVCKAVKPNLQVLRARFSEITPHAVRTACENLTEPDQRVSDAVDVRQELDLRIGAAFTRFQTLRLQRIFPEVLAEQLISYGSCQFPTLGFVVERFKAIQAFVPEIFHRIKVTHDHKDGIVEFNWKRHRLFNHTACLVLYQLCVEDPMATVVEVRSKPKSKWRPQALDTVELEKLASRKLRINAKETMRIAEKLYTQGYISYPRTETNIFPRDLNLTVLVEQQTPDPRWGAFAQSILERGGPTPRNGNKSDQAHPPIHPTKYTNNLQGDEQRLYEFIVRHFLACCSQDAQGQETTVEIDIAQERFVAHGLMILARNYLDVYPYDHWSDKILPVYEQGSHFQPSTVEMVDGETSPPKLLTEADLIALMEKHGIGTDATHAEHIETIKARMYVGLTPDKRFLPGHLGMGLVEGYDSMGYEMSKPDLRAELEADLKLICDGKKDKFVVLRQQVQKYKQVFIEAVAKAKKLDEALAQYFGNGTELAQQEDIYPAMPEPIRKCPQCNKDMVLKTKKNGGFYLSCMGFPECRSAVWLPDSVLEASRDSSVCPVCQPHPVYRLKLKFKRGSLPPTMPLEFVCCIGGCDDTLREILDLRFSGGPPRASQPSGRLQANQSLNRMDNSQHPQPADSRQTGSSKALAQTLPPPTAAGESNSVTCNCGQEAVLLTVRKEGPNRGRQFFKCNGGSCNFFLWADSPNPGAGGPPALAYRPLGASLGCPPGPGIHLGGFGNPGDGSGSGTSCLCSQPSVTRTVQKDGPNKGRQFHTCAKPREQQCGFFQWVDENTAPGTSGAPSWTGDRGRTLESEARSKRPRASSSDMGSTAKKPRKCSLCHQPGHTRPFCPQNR
UniProt Q9UKE5: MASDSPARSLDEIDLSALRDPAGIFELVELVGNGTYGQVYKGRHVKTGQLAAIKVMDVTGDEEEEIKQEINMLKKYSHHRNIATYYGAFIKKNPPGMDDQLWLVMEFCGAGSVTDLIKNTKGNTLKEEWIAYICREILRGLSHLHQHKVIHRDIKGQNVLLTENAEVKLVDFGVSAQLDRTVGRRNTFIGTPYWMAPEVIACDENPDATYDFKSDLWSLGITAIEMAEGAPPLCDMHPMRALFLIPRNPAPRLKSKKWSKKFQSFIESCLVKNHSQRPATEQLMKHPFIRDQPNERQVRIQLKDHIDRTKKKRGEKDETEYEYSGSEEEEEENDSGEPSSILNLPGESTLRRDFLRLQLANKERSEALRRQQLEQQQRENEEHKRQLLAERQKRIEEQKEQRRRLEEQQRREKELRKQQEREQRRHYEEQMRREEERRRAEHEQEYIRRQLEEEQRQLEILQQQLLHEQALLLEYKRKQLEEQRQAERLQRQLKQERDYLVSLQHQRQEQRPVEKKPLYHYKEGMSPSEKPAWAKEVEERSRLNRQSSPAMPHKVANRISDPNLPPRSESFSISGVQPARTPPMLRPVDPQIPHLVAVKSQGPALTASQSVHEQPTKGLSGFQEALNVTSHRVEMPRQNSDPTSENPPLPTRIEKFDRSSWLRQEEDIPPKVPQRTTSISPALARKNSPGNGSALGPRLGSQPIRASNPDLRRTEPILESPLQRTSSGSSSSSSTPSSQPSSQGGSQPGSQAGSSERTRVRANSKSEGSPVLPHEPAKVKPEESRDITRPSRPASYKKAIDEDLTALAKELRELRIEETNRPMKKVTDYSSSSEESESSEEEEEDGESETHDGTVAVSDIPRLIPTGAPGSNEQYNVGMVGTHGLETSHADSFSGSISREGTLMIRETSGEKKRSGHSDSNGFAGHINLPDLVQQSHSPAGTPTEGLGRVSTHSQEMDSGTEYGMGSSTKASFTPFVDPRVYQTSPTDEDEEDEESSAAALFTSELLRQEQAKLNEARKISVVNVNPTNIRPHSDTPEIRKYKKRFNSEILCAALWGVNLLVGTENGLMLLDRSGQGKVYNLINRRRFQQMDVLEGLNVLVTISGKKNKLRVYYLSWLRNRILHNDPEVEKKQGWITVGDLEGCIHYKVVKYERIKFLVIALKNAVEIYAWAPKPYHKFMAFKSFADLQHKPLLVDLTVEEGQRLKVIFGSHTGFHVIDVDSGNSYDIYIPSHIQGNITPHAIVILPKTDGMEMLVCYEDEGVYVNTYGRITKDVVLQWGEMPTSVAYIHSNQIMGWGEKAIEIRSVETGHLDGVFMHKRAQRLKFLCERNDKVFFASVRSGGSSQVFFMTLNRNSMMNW

What was measured:
Test in all cases: log2 fold change, soluble protein after heating vs DMSO (PISA); higher = thermal stabilisation; K562 lysate, 10 uM; active = over 0.2 and 3.5 SD of the protein, either way, in both replicates (recomputed)
erlotinib = compound: C#Cc1cccc(Nc2ncnc3cc(OCCOC)c(OCCOC)cc23)c1 [erlotinib]
Outline: (§1)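 Pellets of K562 cells were dounce-homogenised in PBS pH 7.4 with 1 mM MgCl2, and the crude extract was held at 1 mg/mL protein for a 30 min treatment with 10 μM compound. Aliquots were heated for 3 min over 48°C-58°C and pooled before NP-40 was added to 0.5% at 4°C. The supernatant from 21,000xg for 90 min was quantified by TMTpro 16plex LC-MS/MS with channel sums equalised. Values are reported from duplicates as log-two fold change in thermal stability relative to solvent controls.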

[1] = compound: C/C(=N\NC(=O)C1=CC(=CC=C1)S(=O)(=O)N2CCOCC2)/C3=C(C=CC(=C3)Cl)O
Outline: as §1

[2] = compound: C1=CC(=CC=C1C2=NC3=C(N2)C=C(C=C3)C(=O)N)OC4=CC=C(C=C4)Cl
Outline: as §1

[3] = compound: C1=CC2=C(C=CC(=C2)/C=C\3/C(=O)NC(=NCC4=CC=CS4)S3)N=C1
Outline: as §1

[4] = compound: C1=CC2=NC=CN=C2C=C1/C=C/3\C(=O)NC(=O)S3
Outline: as §1

[5] = compound: C1=CC=C(C=C1)C2=NC(=C(N2)C3=CC=NC=C3)C4=CC(=C(C=C4)Cl)O
Outline: as §1

[6] = compound: C1=CC=C2C(=C1)C3=NNC4=CC=CC(=C43)C2=O
Outline: as §1

[7] = compound: C1CCN(C1)C(=O)NC2=CC=CC(=C2)NC3=NC=C(C(=N3)NCCC4=CN=CN4)Br
Outline: as §1

[8] = compound: C1CN(CCC1(CC2=CC=C(C=C2)Cl)N)C3=NC=NC4=C3C=CN4
Outline: as §1

IRAK-1-4 Inhibitor I = compound: C1COCCN1CCN2C3=CC=CC=C3N=C2NC(=O)C4=CC(=CC=C4)[N+](=O)[O-] [IRAK-1-4 Inhibitor I]
Outline: as §1

Row | Target | log2 fold change (erlotinib) | log2 fold change [1] | log2 fold change [2] | log2 fold change [3] | log2 fold change [4] | log2 fold change [5] | log2 fold change [6] | log2 fold change [7] | log2 fold change [8] | log2 fold change (IRAK-1-4 Inhibitor I)
1 | TOP3B (UniProt O95985) | inactive: -0.01 | inactive: 0.006 | inactive: -0.025 | inactive: -0.007 | inactive: -0.018 | inactive: -0.019 | inactive: 0.007 | inactive: -0.015 | inactive: 0.023 | inactive: -0.014
2 | TMUB2 (UniProt Q71RG4) | inactive: 0.051 | inactive: 0.251 | inactive: 0.004 | inactive: -0.057 | inactive: -0.166 | inactive: -0.036 | inactive: -0.064 | inactive: -0.036 | inactive: 0.008 | inactive: 0.06
3 | TOX4 (UniProt O94842) | inactive: -0.016 | inactive: -0.025 | inactive: 0.049 | inactive: 0.037 | inactive: -0.052 | inactive: 0.04 | inactive: -0.003 | inactive: -0.014 | inactive: 0.053 | inactive: -0.025
4 | TOMM40 (UniProt O96008) | inactive: 0.007 | inactive: -0.004 | inactive: 0.003 | inactive: 0.012 | inactive: 0.003 | inactive: 0.012 | inactive: -0.006 | inactive: -0.008 | inactive: -0.001 | inactive: 0.026
5 | TMEM68 (UniProt Q96MH6) | inactive: 0 | inactive: -0.032 | inactive: -0.008 | inactive: 0.038 | inactive: -0.015 | inactive: -0.017 | inactive: -0.05 | inactive: -0.007 | inactive: -0.055 | inactive: 0.045
6 | TMEM63A (UniProt O94886) | inactive: -0.036 | inactive: -0.044 | inactive: 0.02 | inactive: -0.031 | inactive: 0.009 | inactive: -0.017 | inactive: -0.015 | inactive: -0.057 | inactive: 0.003 | inactive: -0.005
7 | TNIP1 (UniProt Q15025) | inactive: -0.009 | inactive: -0.031 | inactive: 0.068 | inactive: 0.014 | inactive: -0.023 | inactive: -0.008 | inactive: -0.019 | inactive: 0.001 | inactive: -0.012 | inactive: 0.014
8 | TMOD3 (UniProt Q9NYL9) | inactive: -0.007 | inactive: -0.027 | inactive: 0.04 | inactive: 0.016 | inactive: 0.033 | inactive: 0 | inactive: -0.021 | inactive: -0.001 | inactive: -0.033 | inactive: 0.007
9 | TMEM43 (UniProt Q9BTV4) | inactive: 0.019 | inactive: -0.041 | inactive: -0.002 | inactive: 0.006 | inactive: -0.014 | inactive: -0.02 | inactive: -0.069 | inactive: -0.001 | inactive: 0.015 | inactive: 0.028
10 | TPP2 (UniProt Q5VZU9) | inactive: 0.043 | inactive: -0.036 | inactive: 0.086 | inactive: -0.012 | inactive: 0 | inactive: 0.131 | inactive: -0.013 | inactive: 0 | inactive: 0.066 | inactive: 0.005
11 | TMEM30A (UniProt Q9NV96) | inactive: -0.007 | inactive: 0.015 | inactive: -0.024 | inactive: -0.032 | inactive: -0.014 | inactive: 0.069 | inactive: -0.005 | inactive: -0.003 | inactive: 0.039 | inactive: -0.013
12 | TMEM41A (UniProt Q96HV5) | inactive: -0.045 | inactive: -0.06 | inactive: 0.062 | inactive: 0 | inactive: 0.061 | inactive: -0.003 | inactive: 0.082 | inactive: 0 | inactive: 0 | inactive: 0.08
13 | TMTC3 (UniProt Q6ZXV5) | inactive: -0.018 | inactive: 0.062 | inactive: -0.123 | inactive: -0.069 | inactive: 0.049 | inactive: -0.031 | inactive: -0.013 | inactive: 0.042 | inactive: 0.003 | inactive: 0.055
14 | TMEM263 (UniProt Q8WUH6) | inactive: -0.114 | inactive: -0.104 | inactive: 0.273 | inactive: -0.119 | inactive: -0.022 | inactive: -0.05 | inactive: -0.012 | inactive: -0.006 | inactive: 0.095 | inactive: 0.026
15 | TNFAIP8 isoform 4 (UniProt O95379) | inactive: -0.006 | inactive: 0.072 | inactive: -0.046 | inactive: -0.038 | inactive: 0.002 | inactive: 0.026 | inactive: -0.123 | inactive: -0.008 | inactive: 0.017 | inactive: -0.025
16 | TPM4 isoform 2 (UniProt P67936) | inactive: -0.06 | inactive: 0.011 | inactive: -0.048 | inactive: 0.067 | inactive: 0.002 | inactive: 0.024 | inactive: -0.016 | inactive: 0.016 | inactive: -0.015 | inactive: -0.022
17 | TMEM214 (UniProt Q6NUQ4) | inactive: 0.051 | inactive: -0.031 | inactive: 0.07 | inactive: 0.05 | inactive: 0.005 | inactive: -0.033 | inactive: -0.051 | inactive: -0.062 | inactive: 0.043 | inactive: -0.005
18 | TNRC6B (UniProt Q9UPQ9) | inactive: 0.01 | inactive: 0.078 | inactive: 0.013 | inactive: -0.043 | inactive: -0.032 | inactive: -0.026 | inactive: -0.091 | inactive: -0.032 | inactive: -0.006 | inactive: -0.004
19 | TOMM22 (UniProt Q9NS69) | inactive: 0.008 | inactive: 0.009 | inactive: 0.016 | inactive: -0.011 | inactive: -0.015 | inactive: -0.022 | inactive: 0.091 | inactive: 0.017 | inactive: 0.037 | inactive: 0.004
20 | TOMM20 (UniProt Q15388) | inactive: -0.009 | inactive: 0.029 | inactive: -0.112 | inactive: 0.003 | inactive: -0.038 | inactive: -0.011 | inactive: 0.049 | inactive: -0.007 | inactive: -0.006 | inactive: 0
21 | TP53RK (UniProt Q96S44) | inactive: -0.005 | inactive: 0.025 | inactive: 0.038 | active: -0.24 | active: -0.37 | inactive: -0.03 | inactive: 0.042 | inactive: 0.014 | inactive: -0.022 | inactive: -0.008
22 | TNKS1BP1 (UniProt Q9C0C2) | inactive: 0.005 | inactive: -0.057 | inactive: 0.025 | inactive: 0.004 | inactive: 0 | inactive: 0.006 | inactive: -0.032 | inactive: 0.016 | inactive: 0.016 | inactive: 0.01
23 | TNFRSF8 (UniProt P28908) | inactive: -0.006 | inactive: -0.017 | inactive: 0.047 | inactive: -0.011 | inactive: -0.022 | inactive: -0.003 | inactive: 0.054 | inactive: -0.043 | inactive: 0.038 | inactive: -0.004
24 | TOP3A (UniProt Q13472) | inactive: -0.026 | inactive: 0.054 | inactive: -0.014 | inactive: -0.056 | inactive: -0.014 | inactive: -0.042 | inactive: 0.002 | inactive: -0.098 | inactive: 0.206 | inactive: -0.002
25 | TNIK isoform 4 (UniProt Q9UKE5) | inactive: -0.015 | inactive: -0.037 | inactive: -0.035 | inactive: 0.119 | inactive: 0.003 | inactive: 0.125 | inactive: 0.244 | inactive: 0.113 | inactive: -0.031 | inactive: -0.019
26 | TMEM33 (UniProt P57088) | inactive: 0.02 | inactive: 0.022 | inactive: 0.005 | inactive: -0.034 | inactive: 0.001 | inactive: -0.017 | inactive: -0.042 | inactive: 0 | inactive: 0.046 | inactive: 0.033
27 | TOM1L2 (UniProt Q6ZVM7) | inactive: -0.024 | inactive: -0.103 | inactive: 0.009 | inactive: 0.045 | inactive: -0.122 | inactive: 0.036 | inactive: 0.002 | inactive: -0.02 | inactive: -0.013 | inactive: -0.015
28 | TNFAIP2 (UniProt Q03169) | inactive: 0.012 | inactive: -0.01 | inactive: 0.003 | inactive: 0.046 | inactive: 0.012 | inactive: 0.068 | inactive: -0.067 | inactive: -0.111 | inactive: 0.076 | inactive: 0.086
29 | TNPO2 (UniProt O14787) | inactive: 0.033 | inactive: 0.014 | inactive: -0.008 | inactive: -0.001 | inactive: -0.019 | inactive: 0.008 | inactive: -0.006 | inactive: 0.014 | inactive: 0.024 | inactive: 0.05

2 entries picked at random from those above:
Row | Target | log2 fold change (erlotinib) | log2 fold change [1] | log2 fold change [2] | log2 fold change [3] | log2 fold change [4] | log2 fold change [5] | log2 fold change [6] | log2 fold change [7] | log2 fold change [8] | log2 fold change (IRAK-1-4 Inhibitor I)
12 | TMEM41A (UniProt Q96HV5) | inactive: -0.045 | inactive: -0.06 | inactive: 0.062 | inactive: 0 | inactive: 0.061 | inactive: -0.003 | inactive: 0.082 | inactive: 0 | inactive: 0 | inactive: 0.08
11 | TMEM30A (UniProt Q9NV96) | inactive: -0.007 | inactive: 0.015 | inactive: -0.024 | inactive: -0.032 | inactive: -0.014 | inactive: 0.069 | inactive: -0.005 | inactive: -0.003 | inactive: 0.039 | inactive: -0.013
